Measured values as given in patent publication US20250135016A1 (University of Washington, priority 2016, published 2025).
* marks the point of attachment. Fmoc = O=C(OCC1c2ccccc2-c2ccccc21)*

Assays:
[1] = general procedure: Fmoc solid-phase peptide synthesis; rink amide; HBTU/DIEA; settings: whole synthesis
[2] = general procedure: Fmoc solid-phase peptide synthesis; Rink amide resin; HBTU/DIEA; settings: for isolated yield / isolated mass: whole synthesis; for isolated yield: overall; for step yield: late stage modification step; for oxidative folding yield: oxidative folding step
[3] = general procedure: Fmoc solid-phase peptide synthesis; Rink amide; HBTU/DIEA; settings: whole synthesis, scale 0.5 mmol; for isolated yield: overall

Fmoc-GGGGRG-oNB-GRC-NH2
isolated mass ([1]; scale 0.25 mmol): 75 mg | isolated yield ([1]; scale 0.25 mmol): 22%

FAM-GRRGPQGIWGQGRGRC(—S—S—C-PL-N3)—NH2
isolated yield ([2]; scale 0.50 mmol): 9.2% | isolated mass ([2]; scale 0.50 mmol): 60.0 mg

Fmoc-GGGGRC-(H—C—OH)—NH2
step yield [2]: 14%

Fmoc-GGGGRGCGPQGIWGQGQGCGRK-NH2 (cysteine pairing not given here)
isolated mass ([1]; scale 0.25 mmol): 126.5 mg | isolated yield ([1]; scale 0.25 mmol): 23.9%

Fmoc-GGGGRGK(oNB-N3)GGPQGIWGQGK(CO(CH2)2CCH)GRGK-NH2
isolated mass ([1]; scale 0.25 mmol): 85 mg | isolated yield ([1]; scale 0.25 mmol): 12.7%

Fmoc-GGGGRGCGPQGIWGQGQGCGRK-NH2 (staple (positions not given here))
oxidative folding yield [2]: 37.7%

Fmoc-GGGGRGK(oNB-N3)GGPQGIWGQGK(CO(CH2)2CCH)GRGK-NH2 (stapled)
cyclisation yield ([2]; cyclisation step): 9.18%

Fmoc-GGGGRC(HN(CO(CH2)3—N3)Cys)-NH2
step yield [2]: 97%

FAM-GRCG-PL-GCGRK(CO(CH2)3N3)—NH2
isolated yield ([2]; scale 0.25 mmol): 1.04% | isolated mass ([2]; scale 0.25 mmol): 5.7 mg

Fmoc-GGGGRGCG-oNB-GGCGRK(CO(CH2)3N3)—NH2
step yield [2]: 50%

Fmoc-GGGGRGCG-oNB-GGCGRK-NH2 (stapled)
oxidative folding yield [2]: 59.8%

H-GGGGRK(oNB-N3)—NH2
isolated mass ([1]; scale 0.25 mmol): 41.1 mg | isolated yield ([1]; scale 0.25 mmol): 17.83%

Fmoc-GGGGRGPQGIWGQGRC (CO(CH2)3N3)Cys)-NH2
step yield [2]: 61.8%

FAM-GRGPQGIWGQGRC(—S—S—C—CO(CH2)3N3)—NH2
isolated yield ([2]; scale 0.50 mmol): 4.4% | isolated mass ([2]; scale 0.50 mmol): 21.7 mg

FAM-GRGCGPQGIWGQGCGRK(CO(CH2)3N3)—NH2
isolated yield ([2]; scale 0.25 mmol): 1.04% | isolated mass ([2]; scale 0.25 mmol): 5.7 mg

Fmoc-GGGGRG-oNB-GRC(HN(CO(CH2)3N3)—C—OH)—NH2 (before N3—OSu)
step yield [2]: 53.1%

Fmoc-GGGGRG-oNB-GRC(HN(CO(CH2)3N3)—C—OH)—NH2
step yield [2]: 82.9%

Fmoc-GGGGRGPQGIWGQGRC(NH2—C—OH)—NH2
step yield [2]: 68.5%

FAM-RGPQGIWGQGRK(N3)—NH2
isolated yield ([1]; overall, scale 0.50 mmol): 6.52% overall | isolated mass ([1]; scale 0.50 mmol): 56.2 mg

FAM-GRGCGPQGIWGQGCGRK(PL-N3)—NH2
isolated yield ([2]; scale 0.25 mmol): 1.04% | isolated mass ([2]; scale 0.25 mmol): 5.7 mg

N3-oNB-RGGRK(N3)—NH2
isolated yield [3]: 29.8% overall yield | isolated mass [3]: 147.4 mg

H-GGGGRC((CO(CH2)3—N3)Cys)-NH2
step yield [2]: 21.3%

Fmoc-GGGGRGCG-oNB-GGCGRK-NH2
isolated mass ([1]; scale 0.25 mmol): 100 mg | isolated yield ([1]; scale 0.25 mmol): 22%

Fmoc-GGGGRGCGPQGIWGQGQGCGRK(CO(CH2)3N3)—NH2
step yield [2]: 68.6%

N3—(CH2)3CONH-RGPQGIWGQGRK(CO(CH2)3N3))—NH2
isolated yield [3]: 28.4% overall yield | isolated mass [3]: 222.0 mg

Fmoc-GGGGRGK(oNB)GGPQGIWGQGK(CO(CH2)2)GRGK(CO(CH2)3—N3)—NH2
step yield [2]: 98%

H-GGGGRGPQGIWGQGRK(N3)—NH2
isolated mass ([1]; scale 0.25 mmol): 97.6 mg | isolated yield ([1]; scale 0.25 mmol): 24.5%

FAM-GRGPQGIWGQGRK(PL-N3))
isolated yield ([2]; scale 0.25 mmol): 1.9% | isolated mass ([2]; scale 0.25 mmol): 10.3 mg
